Test results from patent publication US6339044B1, “N-P-Cyanoaryl nitrogen-containing heterocycles having pendent sulfur-containing groups” (Bayer Aktiengesellschaft, priority 1993, dated 2002).
Some entries share one result that the patent states for a list of compounds.

Columns and labels:
Type in all cases: in vivo
Settings in all cases: 60 g per hectare, after three weeks
Abutilon = experiment: Pre-emergence test, Abutilon
Amaranthus = experiment: Pre-emergence test, Amaranthus
Ambrosia = experiment: Pre-emergence test, Ambrosia
Galinsoga = experiment: Pre-emergence test, Galinsoga
Portulaca = experiment: Pre-emergence test, Portulaca
Solanum = experiment: Pre-emergence test, Solanum

In the case of `CCS(=O)(=O)Nc1cc(-n2c(=O)cc(C(F)(F)F)n(C)c2=S)c(F)cc1C#N` [Example 4, 1-(4-cyano-2-fluoro-5-ethylsulphonylamino-phenyl)-3,6-dihydro-2-thio-6-oxo-3-methyl-4-trifluoromethyl-1(2H)-pyrimidine], the “degree of damage of the plants in % damage, Abutilon” value (Abutilon) is reported as 80-100%, the “degree of damage of the plants in % damage, Amaranthus” value (Amaranthus) is reported as 70-100% and the “degree of damage of the plants in % damage, Ambrosia” value (Ambrosia) is reported as 95-100%. The “degree of damage of the plants in % damage, Galinsoga” value (Galinsoga) was 90-100%, the “degree of damage of the plants in % damage, Portulaca” value (Portulaca) was 90-100% and the “degree of damage of the plants in % damage, Solanum” value (Solanum) was 80-100%.

For `Cn1c(C(F)(F)F)cc(=O)n(-c2cc(F)c(C#N)cc2F)c1=S` [Example 3, 1-(4-cyano-2,5-difluoro-phenyl)-3,6-dihydro-2-thioxo-6-oxo-3-methyl-4-trifluoromethyl-1(2H)-pyrimidine], the “degree of damage of the plants in % damage, Abutilon” value (Abutilon) was 80-100%, the “degree of damage of the plants in % damage, Amaranthus” value (Amaranthus) was 70-100% and the “degree of damage of the plants in % damage, Ambrosia” value (Ambrosia) was 95-100%. For the same compound, the “degree of damage of the plants in % damage, Galinsoga” value (Galinsoga) was 90-100%, the “degree of damage of the plants in % damage, Portulaca” value (Portulaca) was 90-100% and the “degree of damage of the plants in % damage, Solanum” value (Solanum) was 80-100%.
